# The other results are listed elsewhere or left out.
# By UniProt entry, the sequences of proteins in these tests, tags left out.
# UniProt Q0JBA9, entry or part of it: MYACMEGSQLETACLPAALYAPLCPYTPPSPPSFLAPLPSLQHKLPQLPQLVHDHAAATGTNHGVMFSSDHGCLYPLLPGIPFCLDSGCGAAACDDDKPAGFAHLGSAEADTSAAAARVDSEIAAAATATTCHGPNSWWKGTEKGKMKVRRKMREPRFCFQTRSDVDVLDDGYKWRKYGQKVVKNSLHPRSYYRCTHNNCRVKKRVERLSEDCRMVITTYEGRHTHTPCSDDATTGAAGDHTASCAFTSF
# Target: OsWRKY34 (Oryza sativa, UniProt Q0JBA9 1-250)
# Assay: protein-binding microarray (RPBM); PBS, 2% BSA, 51.3 ng/ul salmon testes DNA, 50 uM zinc acetate, 200 nM TF, 25 C, 1 h; high values mean tight binding
# Conditions: protein: recombinant; tags: N-terminal polyhistidine and DsRed monomer fusion (pET32a); label: CyDye5-dUTP incorporated in the synthesized complementary strand; 3' TTTTT single-stranded linker to array surface; dsDNA, one strand shown
# Outline: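 Binding signal is defined as the fluorescence intensity of each feature in arbitrary units, read on an Axon 4000B scanner. Transcription factors with N-terminal polyhistidine and DsRed fusions came from E. coli BL21-CodonPlus and were purified on Ni–NTA. They were incubated at 200 nM for 1 h at 25 °C on a custom Agilent array that had been made double-stranded with Cy5-dUTP, with 50 µM zinc acetate present, and the array was washed.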
row,Sequence,binding signal
1,AAGCCAGCCATCCGTTTGCTTCCTCTGCAGCTTGCTCCATCGGAGTCACCTAGTGCAG,10900 fluorescence intensity (a.u.)
2,TTCCTTTTACACCCCATATCCATCGTCCCGCCTTTCTTTCCGGAGTCACCTAGTGCAG,8480 fluorescence intensity (a.u.)
3,TGGTTTTATGTGTGAGTTGGGGTAGTGGCGTTGGTAGGTTCGGAGTCACCTAGTGCAG,11700 fluorescence intensity (a.u.)
4,GTGTGTGTGGTGGTAATGGATAATTGGCGTGTGGTTAACCCGGAGTCACCTAGTGCAG,12300 fluorescence intensity (a.u.)
5,ACCAACCTCTCCCTGTCTATCCCATATTATTCGTCTCCTTCGGAGTCACCTAGTGCAG,9280 fluorescence intensity (a.u.)
6,GTCTCGGCTCCCGCATCCTCGCGAGTTCGCCAGCCGCCGCCGGAGTCACCTAGTGCAG,9940 fluorescence intensity (a.u.)
7,GGTGACTCAGCCCTCAAATCATAGTTGTTGACTAAGTATCCGGAGTCACCTAGTGCAG,9030 fluorescence intensity (a.u.)
8,TTTGTTTTACCATTATTTTGTTCGTCTCGTTAGGATTTGTCGGAGTCACCTAGTGCAG,8030 fluorescence intensity (a.u.)
9,AAATCCCATCAACCCCGCCGCCGCCGCCGCCGCCGCCACCCGGAGTCACCTAGTGCAG,8950 fluorescence intensity (a.u.)
10,GTGGGCCGAGCCTTCTCGTGTGTGGGTAGACTCCATGTCCCGGAGTCACCTAGTGCAG,10500 fluorescence intensity (a.u.)
11,CCGTTTTCATTCCATATACAAACCGCGGCCACCGTTCAAACGGAGTCACCTAGTGCAG,10700 fluorescence intensity (a.u.)
12,GATCCGCATCACTGATTCACTGCACTTCGCCCGCCGTCTGCGGAGTCACCTAGTGCAG,9810 fluorescence intensity (a.u.)
13,CATTTTTGTTTTTTACTGGGAGATTTTTTTTCCTTTTTCTCGGAGTCACCTAGTGCAG,11200 fluorescence intensity (a.u.)
14,ATCTATTTCAGTTCTGTTGCTTCTGTATGTTACTAAAAACCGGAGTCACCTAGTGCAG,9510 fluorescence intensity (a.u.)
15,AGTGATGATTGTTGTGCATGCATTTTGTGTCTTTTAGAGACGGAGTCACCTAGTGCAG,14900 fluorescence intensity (a.u.)
16,TTAACACACGAAATTACACGTCAACACTGAATACCATGTCCGGAGTCACCTAGTGCAG,10000 fluorescence intensity (a.u.)
17,CGCCACCGCCACCGCCCGTCCACATCCGCCGGCGCCGATGCGGAGTCACCTAGTGCAG,9270 fluorescence intensity (a.u.)
18,CGCCATCCAGATCCCAACCGTCCACTCCCTACCCATCCAACGGAGTCACCTAGTGCAG,13000 fluorescence intensity (a.u.)
19,ACCTCCACCACCGCCTAATCTAGGTGCATGCTTTATTTACCGGAGTCACCTAGTGCAG,8510 fluorescence intensity (a.u.)
20,CTATACTATTAATATCTGGTCCTACCTGTTATACATACATCGGAGTCACCTAGTGCAG,8370 fluorescence intensity (a.u.)
21,ATAATCCGAGTGCTTCAATTTCTTCTGTATTGATCTCCCTCGGAGTCACCTAGTGCAG,8720 fluorescence intensity (a.u.)
22,TTCTACACTCTCTTGATCAGCTCTCACCACTATGTACACTCGGAGTCACCTAGTGCAG,8860 fluorescence intensity (a.u.)
23,CCGGTTTAGTTCTCGAAGATGTTCGTAGGGGTAGGATTTGCGGAGTCACCTAGTGCAG,11000 fluorescence intensity (a.u.)

# 2 entries from above in a different format.
row	Sequence	binding signal
21	ATAATCCGAGTGCTTCAATTTCTTCTGTATTGATCTCCCTCGGAGTCACCTAGTGCAG	8720 fluorescence intensity (a.u.)
22	TTCTACACTCTCTTGATCAGCTCTCACCACTATGTACACTCGGAGTCACCTAGTGCAG	8860 fluorescence intensity (a.u.)

# Source: article PMC7819943, “Rice protein-binding microarrays: a tool to detect cis-acting elements near promoter regions in rice”
